Experimental data taken from publication PMC12691677.
Results are given in words; binding and its absence hold for the method and conditions named. Binding can be weak; no strength is given. Where a sequence is shown, tags or fusion partners need not be part of it.

Biological target: T1, NifH (bacterial two-hybrid fusion) (K. oxytoca) (UniProt P00458)
T1 sequence: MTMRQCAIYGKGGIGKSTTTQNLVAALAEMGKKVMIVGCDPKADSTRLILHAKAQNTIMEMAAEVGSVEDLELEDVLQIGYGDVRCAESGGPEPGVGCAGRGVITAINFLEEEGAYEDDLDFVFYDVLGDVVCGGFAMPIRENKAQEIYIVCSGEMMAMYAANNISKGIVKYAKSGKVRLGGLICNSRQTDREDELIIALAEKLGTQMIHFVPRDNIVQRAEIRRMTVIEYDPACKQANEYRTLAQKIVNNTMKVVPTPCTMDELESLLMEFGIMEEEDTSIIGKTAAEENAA
Experiment: two-hybrid; bacterial two-hybrid (BTH), fusions to the T18 and T25 fragments of B. pertussis adenylate cyclase (pUT18C, pKT25) in E. coli BTH101; preculture in LB with 200 uM IPTG for 48 h, spotted on LB with X-gal, 30°C, 12 h; blue colour

Substance | binding
NifMc (C-terminal truncated NifM, bacterial two-hybrid fusion) (K. oxytoca) (domain or fragment) | no binding
NifMn (N-terminal truncated NifM, bacterial two-hybrid fusion) (K. oxytoca) (domain or fragment) | binds
